Results on one molecule are retold here after patent US20220153834A1.

By UniProt entry, the sequences of proteins in these tests, tags left out. Residues count along the entry.
UniProt P98066, residues 18-277: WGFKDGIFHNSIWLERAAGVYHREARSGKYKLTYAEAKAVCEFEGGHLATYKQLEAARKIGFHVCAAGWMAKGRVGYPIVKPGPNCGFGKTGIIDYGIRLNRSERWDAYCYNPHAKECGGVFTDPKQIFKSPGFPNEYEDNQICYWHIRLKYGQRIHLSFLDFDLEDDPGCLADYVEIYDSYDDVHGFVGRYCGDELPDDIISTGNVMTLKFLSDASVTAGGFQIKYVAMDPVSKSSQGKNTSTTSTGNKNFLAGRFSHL
UniProt O08859, residues 18-275: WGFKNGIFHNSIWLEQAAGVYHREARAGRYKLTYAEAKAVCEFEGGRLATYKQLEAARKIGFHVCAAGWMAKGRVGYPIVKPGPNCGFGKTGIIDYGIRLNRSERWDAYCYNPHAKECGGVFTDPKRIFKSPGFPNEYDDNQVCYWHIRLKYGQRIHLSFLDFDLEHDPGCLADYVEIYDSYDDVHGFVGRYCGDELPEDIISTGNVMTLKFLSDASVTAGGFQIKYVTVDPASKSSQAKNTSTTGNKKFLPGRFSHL

No constants are given. Whether binding was seen depends on the method and setting. Some entries that bind do so weakly or less than the wild type.

The target of test [1] is Recombinant human TSG-6 (R&D Biosystems, catalog #2104-TS) (human) (UniProt P98066). As to the kind of experiment: ELISA of hybridoma supernatants on recombinant human TSG-6.
For test [2], the target named is Recombinant mouse TSG-6 (R&D Biosystems, catalog #2326-TS) (mouse) (UniProt O08859). As to the kind of experiment: hybridoma raised against mouse TSG-6; clone selection by ELISA.

B1: ID12 (antibody, V domains shown)
VH: QVQLQQSGPELVKPGASVKLSCKTSGYTFTSYDINWVKQRPGQGLEWIGWIYPSDGSTKFNEKFKGMATLTVDTSSSTAYMELHSLTSEDSTVYFCARGLWYYGGGVDYWGQGTSVTVSS
VL: DAVMTQTPLSLPVSLGDQASISCRSTQSLEDSNGNTYLNWYLQKPGQSPQLLIYRVSNRFSGVLDRFSGSGSGTDFTLKISRVEAEDLGVYFCLQVTHVPYTFGGGTKLEIKR
Consider B1, for which the binding entry in test [1] and in test [2] was “binds” in each case.
